Some of the results follow.
What follows are targets tested with CN1CCN(c2nc(C3=C(c4c[nH]c5ccccc45)C(=O)NC3=O)c3ccccc3n2)CC1 [sotrastaurin] (assay: log2 fold change, soluble protein after heating vs DMSO (PISA); higher = thermal stabilisation; K562 lysate, 10 uM; active = over 0.2 and 3.5 SD of the protein, either way, in both replicates (recomputed)).
Outline: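 K562 pellets were dounce-homogenised in PBS pH 7.4 containing 1 mM MgCl2, and the crude extract, at 1 mg/mL protein, was exposed to 10 μM compound for 30 min. Aliquots were heated for 3 min across 48°C-58°C, pooled, brought to 0.5% NP-40 at 4°C and spun at 21,000xg for 90 min, with the supernatant taken as soluble protein. TMTpro 16plex LC-MS/MS with equalised channel sums quantified that protein. Values are log-two fold changes in thermal stability relative to solvent controls, taken from duplicates.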

By UniProt entry, the sequences of proteins in these tests, tags left out. Where a name states a change or a piece, a line headed by the entry shows the natural chain unless it says otherwise.
UniProt Q7L1V2: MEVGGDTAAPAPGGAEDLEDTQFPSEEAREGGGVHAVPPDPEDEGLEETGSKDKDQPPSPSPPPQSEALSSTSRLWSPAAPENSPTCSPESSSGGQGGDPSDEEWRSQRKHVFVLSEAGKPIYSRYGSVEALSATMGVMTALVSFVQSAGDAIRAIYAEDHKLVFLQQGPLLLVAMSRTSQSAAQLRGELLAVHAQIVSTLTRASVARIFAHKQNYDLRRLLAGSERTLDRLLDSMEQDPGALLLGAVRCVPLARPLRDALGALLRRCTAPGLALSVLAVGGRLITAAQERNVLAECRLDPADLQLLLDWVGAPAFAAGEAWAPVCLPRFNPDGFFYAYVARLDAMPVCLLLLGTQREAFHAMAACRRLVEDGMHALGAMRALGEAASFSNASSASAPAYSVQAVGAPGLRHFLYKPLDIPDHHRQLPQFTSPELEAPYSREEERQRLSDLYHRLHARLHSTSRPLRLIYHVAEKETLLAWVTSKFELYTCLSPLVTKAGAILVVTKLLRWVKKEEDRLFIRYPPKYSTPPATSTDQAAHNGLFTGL
UniProt P29372, whole entry, looked up: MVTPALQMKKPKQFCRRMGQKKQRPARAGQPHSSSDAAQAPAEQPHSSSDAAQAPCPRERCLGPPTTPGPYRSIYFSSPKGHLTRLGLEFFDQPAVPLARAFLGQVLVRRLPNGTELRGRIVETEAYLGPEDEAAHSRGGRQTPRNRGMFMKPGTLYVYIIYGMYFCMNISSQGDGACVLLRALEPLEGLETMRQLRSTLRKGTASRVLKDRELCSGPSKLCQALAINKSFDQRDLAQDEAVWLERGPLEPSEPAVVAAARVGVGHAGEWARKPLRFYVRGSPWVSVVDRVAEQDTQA
UniProt Q14149: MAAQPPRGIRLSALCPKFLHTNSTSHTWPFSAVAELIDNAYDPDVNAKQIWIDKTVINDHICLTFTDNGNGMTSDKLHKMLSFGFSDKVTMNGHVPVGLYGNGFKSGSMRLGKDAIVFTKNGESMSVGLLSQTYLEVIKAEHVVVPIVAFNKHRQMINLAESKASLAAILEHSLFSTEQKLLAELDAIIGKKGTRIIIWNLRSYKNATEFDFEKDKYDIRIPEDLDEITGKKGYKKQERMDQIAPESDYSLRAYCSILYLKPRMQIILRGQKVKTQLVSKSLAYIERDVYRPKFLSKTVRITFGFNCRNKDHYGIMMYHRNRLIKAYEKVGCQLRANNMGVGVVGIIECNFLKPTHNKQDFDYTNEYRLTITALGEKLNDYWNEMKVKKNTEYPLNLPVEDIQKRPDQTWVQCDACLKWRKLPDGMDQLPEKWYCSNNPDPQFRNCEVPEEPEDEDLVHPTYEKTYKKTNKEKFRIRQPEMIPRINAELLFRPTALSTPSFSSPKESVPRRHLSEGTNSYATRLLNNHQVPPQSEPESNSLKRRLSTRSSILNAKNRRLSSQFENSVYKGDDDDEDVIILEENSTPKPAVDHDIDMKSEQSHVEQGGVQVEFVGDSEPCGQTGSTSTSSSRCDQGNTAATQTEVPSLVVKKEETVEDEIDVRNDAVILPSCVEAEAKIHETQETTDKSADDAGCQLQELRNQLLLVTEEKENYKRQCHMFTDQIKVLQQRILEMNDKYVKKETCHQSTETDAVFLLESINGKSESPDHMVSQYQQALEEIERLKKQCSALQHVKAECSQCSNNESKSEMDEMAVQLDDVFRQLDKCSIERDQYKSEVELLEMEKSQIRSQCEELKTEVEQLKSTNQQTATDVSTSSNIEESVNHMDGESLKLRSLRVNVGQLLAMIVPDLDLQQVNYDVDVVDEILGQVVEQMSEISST
UniProt P39210: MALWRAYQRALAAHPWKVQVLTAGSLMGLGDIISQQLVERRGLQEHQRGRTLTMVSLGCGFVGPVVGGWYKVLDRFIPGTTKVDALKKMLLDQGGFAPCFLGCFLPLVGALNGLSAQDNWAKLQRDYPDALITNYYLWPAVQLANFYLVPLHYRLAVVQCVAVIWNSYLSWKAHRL
UniProt Q8IYU8: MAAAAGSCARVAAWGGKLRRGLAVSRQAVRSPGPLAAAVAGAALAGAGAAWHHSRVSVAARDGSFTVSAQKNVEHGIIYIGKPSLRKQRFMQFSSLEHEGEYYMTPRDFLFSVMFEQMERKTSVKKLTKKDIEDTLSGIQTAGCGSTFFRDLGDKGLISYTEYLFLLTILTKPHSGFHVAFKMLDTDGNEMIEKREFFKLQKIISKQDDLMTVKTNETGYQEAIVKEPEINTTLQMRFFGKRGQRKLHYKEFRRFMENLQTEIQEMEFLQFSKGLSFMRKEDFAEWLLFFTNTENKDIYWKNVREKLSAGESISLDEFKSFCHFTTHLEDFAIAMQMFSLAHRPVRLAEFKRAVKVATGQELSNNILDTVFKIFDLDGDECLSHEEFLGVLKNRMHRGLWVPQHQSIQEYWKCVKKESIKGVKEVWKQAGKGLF
UniProt Q86TA1: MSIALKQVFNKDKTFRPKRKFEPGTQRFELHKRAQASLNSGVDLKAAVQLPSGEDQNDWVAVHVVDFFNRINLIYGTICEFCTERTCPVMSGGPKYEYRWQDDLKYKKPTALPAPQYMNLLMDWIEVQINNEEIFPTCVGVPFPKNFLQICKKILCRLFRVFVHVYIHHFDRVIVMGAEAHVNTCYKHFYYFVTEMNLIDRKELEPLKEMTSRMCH
UniProt Q8N5J2: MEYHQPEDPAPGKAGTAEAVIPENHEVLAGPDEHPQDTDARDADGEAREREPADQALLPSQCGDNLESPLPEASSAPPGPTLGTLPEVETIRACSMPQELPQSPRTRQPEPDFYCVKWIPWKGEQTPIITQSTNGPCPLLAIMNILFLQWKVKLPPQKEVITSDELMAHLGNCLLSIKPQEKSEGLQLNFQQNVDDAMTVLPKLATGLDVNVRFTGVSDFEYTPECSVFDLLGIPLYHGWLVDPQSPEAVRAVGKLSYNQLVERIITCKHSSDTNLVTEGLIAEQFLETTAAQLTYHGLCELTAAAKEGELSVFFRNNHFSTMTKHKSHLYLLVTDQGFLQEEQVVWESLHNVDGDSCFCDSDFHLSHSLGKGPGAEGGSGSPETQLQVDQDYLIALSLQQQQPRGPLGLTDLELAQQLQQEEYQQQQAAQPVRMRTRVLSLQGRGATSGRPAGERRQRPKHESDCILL
UniProt P49959: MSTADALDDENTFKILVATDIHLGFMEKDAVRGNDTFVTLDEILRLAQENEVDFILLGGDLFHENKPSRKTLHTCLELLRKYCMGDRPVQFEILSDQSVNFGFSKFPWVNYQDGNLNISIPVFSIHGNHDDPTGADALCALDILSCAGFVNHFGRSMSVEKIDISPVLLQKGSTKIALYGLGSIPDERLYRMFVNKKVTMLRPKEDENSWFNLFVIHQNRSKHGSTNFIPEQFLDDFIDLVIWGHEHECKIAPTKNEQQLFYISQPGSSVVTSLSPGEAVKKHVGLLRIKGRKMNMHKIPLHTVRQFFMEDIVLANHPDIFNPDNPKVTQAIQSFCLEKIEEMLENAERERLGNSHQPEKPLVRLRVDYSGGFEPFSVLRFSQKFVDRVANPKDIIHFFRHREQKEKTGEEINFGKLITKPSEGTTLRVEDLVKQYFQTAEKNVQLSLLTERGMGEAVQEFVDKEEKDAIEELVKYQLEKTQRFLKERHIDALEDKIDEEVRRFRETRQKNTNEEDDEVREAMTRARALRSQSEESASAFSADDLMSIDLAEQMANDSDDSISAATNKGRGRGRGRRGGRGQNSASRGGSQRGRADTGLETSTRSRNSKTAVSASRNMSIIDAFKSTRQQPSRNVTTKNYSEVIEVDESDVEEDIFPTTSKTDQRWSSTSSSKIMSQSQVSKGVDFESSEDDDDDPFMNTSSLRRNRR
UniProt Q8TAP9: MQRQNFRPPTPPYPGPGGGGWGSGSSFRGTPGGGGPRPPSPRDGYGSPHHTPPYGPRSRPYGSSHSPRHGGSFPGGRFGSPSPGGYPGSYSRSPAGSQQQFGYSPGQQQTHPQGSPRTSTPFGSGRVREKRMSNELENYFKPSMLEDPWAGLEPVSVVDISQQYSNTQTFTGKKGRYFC
UniProt Q6ZRQ5: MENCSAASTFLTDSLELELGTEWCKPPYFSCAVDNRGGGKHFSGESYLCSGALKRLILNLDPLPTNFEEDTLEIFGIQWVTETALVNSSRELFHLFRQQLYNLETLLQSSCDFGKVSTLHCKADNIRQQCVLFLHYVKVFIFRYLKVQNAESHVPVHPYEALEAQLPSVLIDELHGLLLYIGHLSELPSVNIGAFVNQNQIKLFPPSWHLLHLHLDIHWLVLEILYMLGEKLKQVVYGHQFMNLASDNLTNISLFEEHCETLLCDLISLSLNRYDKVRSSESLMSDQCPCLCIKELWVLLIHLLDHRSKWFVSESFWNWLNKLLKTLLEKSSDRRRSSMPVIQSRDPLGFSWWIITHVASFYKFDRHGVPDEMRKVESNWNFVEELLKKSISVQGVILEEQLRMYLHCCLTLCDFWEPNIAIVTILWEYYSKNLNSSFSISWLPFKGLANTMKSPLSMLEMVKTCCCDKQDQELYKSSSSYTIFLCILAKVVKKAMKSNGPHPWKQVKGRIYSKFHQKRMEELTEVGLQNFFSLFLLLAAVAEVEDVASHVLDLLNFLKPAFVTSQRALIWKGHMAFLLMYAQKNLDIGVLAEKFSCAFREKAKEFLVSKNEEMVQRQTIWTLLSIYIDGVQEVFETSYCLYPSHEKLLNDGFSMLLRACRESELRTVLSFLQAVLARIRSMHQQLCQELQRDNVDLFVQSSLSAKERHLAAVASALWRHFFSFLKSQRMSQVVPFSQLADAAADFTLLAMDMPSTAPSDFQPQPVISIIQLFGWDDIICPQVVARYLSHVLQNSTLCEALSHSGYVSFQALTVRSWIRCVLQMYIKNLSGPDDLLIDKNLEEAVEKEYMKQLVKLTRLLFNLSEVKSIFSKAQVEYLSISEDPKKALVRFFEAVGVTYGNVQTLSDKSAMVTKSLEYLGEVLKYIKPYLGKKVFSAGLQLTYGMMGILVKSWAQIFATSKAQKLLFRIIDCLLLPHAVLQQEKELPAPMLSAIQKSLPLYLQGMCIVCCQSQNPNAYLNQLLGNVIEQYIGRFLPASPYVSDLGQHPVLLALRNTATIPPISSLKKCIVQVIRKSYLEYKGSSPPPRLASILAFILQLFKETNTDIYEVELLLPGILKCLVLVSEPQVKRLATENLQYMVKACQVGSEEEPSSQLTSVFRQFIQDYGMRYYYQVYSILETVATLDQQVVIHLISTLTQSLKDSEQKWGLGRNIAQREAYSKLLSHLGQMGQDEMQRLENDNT
UniProt Q9NV56, whole entry, looked up: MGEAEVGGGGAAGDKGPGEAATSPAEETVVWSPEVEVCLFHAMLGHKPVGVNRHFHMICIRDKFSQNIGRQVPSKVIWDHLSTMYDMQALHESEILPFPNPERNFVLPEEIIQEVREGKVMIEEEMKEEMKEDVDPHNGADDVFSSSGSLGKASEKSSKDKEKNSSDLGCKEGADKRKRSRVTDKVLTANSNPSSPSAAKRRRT
UniProt O60291: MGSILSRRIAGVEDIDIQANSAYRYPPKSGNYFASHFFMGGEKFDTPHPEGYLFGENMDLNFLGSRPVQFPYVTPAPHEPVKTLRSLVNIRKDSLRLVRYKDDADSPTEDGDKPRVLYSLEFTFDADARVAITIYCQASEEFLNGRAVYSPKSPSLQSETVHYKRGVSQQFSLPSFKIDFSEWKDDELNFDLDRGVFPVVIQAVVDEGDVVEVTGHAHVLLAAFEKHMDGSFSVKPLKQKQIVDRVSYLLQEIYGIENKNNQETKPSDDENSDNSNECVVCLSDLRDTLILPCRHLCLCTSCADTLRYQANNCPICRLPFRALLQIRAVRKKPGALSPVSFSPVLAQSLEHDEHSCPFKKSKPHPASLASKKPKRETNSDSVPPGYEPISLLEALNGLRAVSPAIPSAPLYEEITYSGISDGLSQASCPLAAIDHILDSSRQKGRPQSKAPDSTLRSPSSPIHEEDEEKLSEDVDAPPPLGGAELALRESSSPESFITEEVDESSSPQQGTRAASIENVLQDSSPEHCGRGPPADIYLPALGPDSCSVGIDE
UniProt Q99583: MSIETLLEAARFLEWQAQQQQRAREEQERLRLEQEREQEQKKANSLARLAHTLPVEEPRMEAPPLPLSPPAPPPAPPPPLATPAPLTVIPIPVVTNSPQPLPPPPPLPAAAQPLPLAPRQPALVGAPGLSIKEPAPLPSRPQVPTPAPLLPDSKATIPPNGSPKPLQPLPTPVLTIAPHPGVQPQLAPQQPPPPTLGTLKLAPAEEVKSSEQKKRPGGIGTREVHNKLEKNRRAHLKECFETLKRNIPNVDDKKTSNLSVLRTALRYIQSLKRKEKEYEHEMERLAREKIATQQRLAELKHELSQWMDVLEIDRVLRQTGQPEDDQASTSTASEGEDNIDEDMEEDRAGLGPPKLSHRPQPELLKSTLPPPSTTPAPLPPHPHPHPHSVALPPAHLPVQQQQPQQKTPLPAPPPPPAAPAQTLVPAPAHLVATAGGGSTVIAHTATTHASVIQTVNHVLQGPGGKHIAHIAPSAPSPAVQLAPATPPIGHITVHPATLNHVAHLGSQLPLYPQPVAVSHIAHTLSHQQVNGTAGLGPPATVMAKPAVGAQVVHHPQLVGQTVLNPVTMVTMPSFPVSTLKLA

**Q.** MKLN1 (UniProt Q9UL63) was tested. Which log2 fold change did it give?
**A.** The log2 fold change was inactive: 0.009.

**Q.** MICAL3 (UniProt Q7RTP6) was tested. Which log2 fold change did it give?
**A.** Its log2 fold change is inactive: 0.014.

**Q.** MGST1 (UniProt P10620) was tested. Which log2 fold change did it give?
**A.** The log2 fold change was inactive: -0.013.

**Q.** With MMADHC (UniProt Q9H3L0) as the target, how does the log2 fold change read?
**A.** The log2 fold change was inactive: -0.064.

**Q.** How did the log2 fold change turn out when MON1B (UniProt Q7L1V2) was run?
**A.** Its log2 fold change is inactive: 0.04.

**Q.** For MRPL16 (UniProt Q9NX20), which log2 fold change is on record?
**A.** Its log2 fold change is inactive: -0.042.

**Q.** MOSPD2 (UniProt Q8NHP6) was tested. Which log2 fold change did it give?
**A.** The log2 fold change was inactive: 0.076.

**Q.** For MON2 isoform 5 (UniProt Q7Z3U7), which log2 fold change is on record?
**A.** The log2 fold change was inactive: -0.003.

**Q.** MGST2 (UniProt Q99735) was tested. Which log2 fold change did it give?
**A.** The log2 fold change was inactive: 0.017.

**Q.** How did the log2 fold change turn out when MICAL2 (UniProt O94851) was run?
**A.** The log2 fold change was inactive: -0.055.

**Q.** With MOCOS (UniProt Q96EN8) as the target, how does the log2 fold change read?
**A.** The log2 fold change was inactive: 0.018.

**Q.** MPG (UniProt P29372) was tested. Which log2 fold change did it give?
**A.** The log2 fold change was inactive: 0.013.

**Q.** Which log2 fold change does the source give for MRPL1 (UniProt Q9BYD6) here?
**A.** The log2 fold change was inactive: 0.086.

**Q.** How did the log2 fold change turn out when MRAS (UniProt O14807) was run?
**A.** The log2 fold change was inactive: 0.

**Q.** With MOB4 (UniProt Q9Y3A3) as the target, how does the log2 fold change read?
**A.** The log2 fold change was inactive: -0.022.

**Q.** MIPEP (UniProt Q99797) was tested. Which log2 fold change did it give?
**A.** Its log2 fold change is inactive: -0.042.

**Q.** For MLST8 (UniProt Q9BVC4), which log2 fold change is on record?
**A.** The log2 fold change was inactive: -0.045.

**Q.** Which log2 fold change does the source give for MORC3 (UniProt Q14149) here?
**A.** Its log2 fold change is inactive: 0.006.

**Q.** How did the log2 fold change turn out when MPV17 (UniProt P39210) was run?
**A.** The log2 fold change was inactive: -0.152.

**Q.** Which log2 fold change does the source give for MICU2 (UniProt Q8IYU8) here?
**A.** Its log2 fold change is inactive: 0.126.

**Q.** MOB3B (UniProt Q86TA1) was tested. Which log2 fold change did it give?
**A.** Its log2 fold change is inactive: 0.006.

**Q.** Which log2 fold change does the source give for MGA (UniProt Q8IWI9) here?
**A.** The log2 fold change was inactive: 0.031.

**Q.** With MNX1 (UniProt P50219) as the target, how does the log2 fold change read?
**A.** Its log2 fold change is inactive: 0.052.

**Q.** For MINDY1 isoform 3 (UniProt Q8N5J2), which log2 fold change is on record?
**A.** Its log2 fold change is inactive: 0.074.

**Q.** MRE11 isoform 3 (UniProt P49959) was tested. Which log2 fold change did it give?
**A.** Its log2 fold change is inactive: 0.007.

**Q.** MRPL2 (UniProt Q5T653) was tested. Which log2 fold change did it give?
**A.** The log2 fold change was inactive: 0.047.

**Q.** For MPLKIP (UniProt Q8TAP9), which log2 fold change is on record?
**A.** The log2 fold change was inactive: 0.009.

**Q.** With MMS22L (UniProt Q6ZRQ5) as the target, how does the log2 fold change read?
**A.** Its log2 fold change is inactive: 0.012.

**Q.** With MRGBP (UniProt Q9NV56) as the target, how does the log2 fold change read?
**A.** The log2 fold change was inactive: 0.003.

**Q.** With MOCS2 (UniProt O96007) as the target, how does the log2 fold change read?
**A.** The log2 fold change was inactive: -0.058.

**Q.** With MKRN3 (UniProt Q13064) as the target, how does the log2 fold change read?
**A.** Its log2 fold change is inactive: -0.024.

**Q.** With MGRN1 isoform 2 (UniProt O60291) as the target, how does the log2 fold change read?
**A.** The log2 fold change was inactive: -0.133.

**Q.** How did the log2 fold change turn out when MIF4GD isoform 3 (UniProt A9UHW6) was run?
**A.** The log2 fold change was inactive: 0.017.

**Q.** How did the log2 fold change turn out when MNT (UniProt Q99583) was run?
**A.** The log2 fold change was inactive: -0.034.

**Q.** MKI67 (UniProt P46013) was tested. Which log2 fold change did it give?
**A.** The log2 fold change was inactive: 0.012.

**Q.** With MOCS1 isoform 8 (UniProt Q9NZB8) as the target, how does the log2 fold change read?
**A.** The log2 fold change was inactive: -0.018.

**Q.** For MRM1 (UniProt Q6IN84), which log2 fold change is on record?
**A.** The log2 fold change was inactive: -0.004.

**Q.** With MITD1 (UniProt Q8WV92) as the target, how does the log2 fold change read?
**A.** The log2 fold change was inactive: 0.039.
